B1: Ddx51 (protein, UniProt Q6P9R1 1-639)
chain: MALFHIARYAGPEAAGQGDTDAEAGSRARVLLERLQNRARERQQREPELETTGTAGEGEAAAAGKRRRRPRRRRRVSGSATPNSEAPRAKRRKADKDVDAGRGEEAPEELSAGAEDPGANPQEDVQRPPAPGRVLGDFARRKTPKVQPFLPAWLAKPSCVKKSVTEDLTPIEDIPEVHPDLQKQLRANGITSYFPVQAAVIPALLESADHGFLIGRGGYQPSDLCVSAPTGSGKTLAFVIPVVQALLHRVVCHIRALVVLPTKELAQQVSKVFNIYTDTTPLRVALVTGQKSLAKEQESLVQKTADGFRCLADIVVATPGRLVDHIDQTPGFSLQQLRFLIIDEADRMIDSMHQSWLPRVVAAAFYSEGPTGSCALLQRTQPQALTAASTCVPQMPLQKLLFSATLTQDPEKLQRLGLYQPRLFSTRLGQQSPKDTAEVDENSGKYTFPVGLTHHYVPCRLSSKPLIVLHLVLRMSCSRALCFTNSRENSHRLYLLAQAFGGVSVAEFSSRYGPGQRKKILKQFEQGKIQLLISTDATARGIDVQGVELVINYDAPQYLRTYVHRVGRTARAGKTGQAFTLLLKVQERKFLQMVSEAGVPELTHHEIPRKLLQPLVARYETALSQLEKTVKEEQKLKAA
B2: Sf3b1 (protein, UniProt Q99NB9 1-1304)
chain: MAKIAKTHEDIEAQIREIQGKKAALDEAQGVGLDSTGYYDQEIYGGSDSRFAGYVTSIAATELEDDDDDYSSSTSLLGQKKPGYHAPVALLNDIPQSTEQYDPFAEHRPPKIADREDEYKKHRRTMIISPERLDPFADGGKTPDPKMNARTYMDVMREQHLTKEEREIRQQLAEKAKAGELKVVNGAAASQPPSKRKRRWDQTADQTPGATPKKLSSWDQAETPGHTPSLRWDETPGRAKGSETPGATPGSKIWDPTPSHTPAGAATPGRGDTPGHATPGHGGATSSARKNRWDETPKTERDTPGHGSGWAETPRTDRGGDSIGETPTPGASKRKSRWDETPASQMGGSTPVLTPGKTPIGTPAMNMATPTPGHIMSMTPEQLQAWRWEREIDERNRPLSDEELDAMFPEGYKVLPPPAGYVPIRTPARKLTATPTPLGGMTGFHMQTEDRTMKSVNDQPSGNLPFLKPDDIQYFDKLLVDVDESTLSPEEQKERKIMKLLLKIKNGTPPMRKAALRQITDKAREFGAGPLFNQILPLLMSPTLEDQERHLLVKVIDRILYKLDDLVRPYVHKILVVIEPLLIDEDYYARVEGREIISNLAKAAGLATMISTMRPDIDNMDEYVRNTTARAFAVVASALGIPSLLPFLKAVCKSKKSWQARHTGIKIVQQIAILMGCAILPHLRSLVEIIEHGLVDEQQKVRTISALAIAALAEAATPYGIESFDSVLKPLWKGIRQHRGKGLAAFLKAIGYLIPLMDAEYANYYTREVMLILIREFQSPDEEMKKIVLKVVKQCCGTDGVEANYIKTEILPPFFKHFWQHRMALDRRNYRQLVDTTVELANKVGAAEIISRIVDDLKDEAEQYRKMVMETIEKIMGNLGAADIDHKLEEQLIDGILYAFQEQTTEDSVMLNGFGTVVNALGKRVKPYLPQICGTVLWRLNNKSAKVRQQAADLISRTAVVMKTCQEEKLMGHLGVVLYEYLGEEYPEVLGSILGALKAIVNVIGMHKMTPPIKDLLPRLTPILKNRHEKVQENCIDLVGRIADRGAEYVSAREWMRICFELLELLKAHKKAIRRATVNTFGYIAKAIGPHDVLATLLNNLKVQERQNRVCTTVAIAIVAETCSPFTVLPALMNEYRVPELNVQNGVLKSLSFLFEYIGEMGKDYIYAVTPLLEDALMDRDLVHRQTASAVVQHMSLGVYGFGCEDSLNHLLNYVWPNVFETSPHVIQAVMGALEGLRVAIGPCRMLQYCLQGLFHPARKVRDVYWKIYNSIYIGSQDALIAHYPRIYNDDKNTYIRYDLDYIL
B3: RRP8 (protein, UniProt Q9DB85 1-457)
chain: MFEEPEWVEAAPAIVGLGAATAQVRPATAPPVKGRKRRHLLATLRALEAASLSQQTPSLPGSDSEEEEEVGRKKRHLQRPSLASVSKEVGKKRKGKCQKQAPSISDSEGKEIRRKCHRQAPPLGGVSAGEEKGKRKCQEYSSLHLTQPLDSVDQTVHNSRTSTATIDPSKPSPESMSPNSSHTLSRKQWRNRQKNKRRHKNKFRPLQTPEQAPPKASIEETEVPPVPKSDSQESRAGALRARMTQRLDGARFRYLNEQLYSGPSSAARRLFQEDPEAFLLYHRGFQRQVKKWPLHPVDRIAKDLRQKPASLVVADFGCGDCRLASSVRNPVHCFDLASLDPRVTVCDMAQVPLEDESVDVAVFCLSLMGTNIRDFLEEANRVLKTGGLLKVAEVSSRFEDIRTFLGAVTKLGFKIIYKDLTNSHFFLFDFEKTGPPRVGPKAQLSGLKLQPCLYKRR
B4: Ddx27 (protein, UniProt Q921N6 1-760)
chain: MLAELGFIRTIGENDEVPVEPESDSGDEEEEGPIVLGRKQKALQKNRSADFNPDFVFTEKEGMYDGSWALADVMSQLKKKRAATTLDEKIEKVRKRRKAEDKEAKSGKVEEKEGQADSDLKGQENPGEDEAGSKDEDSETDYSSEDEEILTKADTLKVKEKKKKKKGQAAGGFFEDASEYDKSLSFQDMNLSRPLLKAITAMGFKQPTPIQKACIPVGLLGKDICACAATGTGKTAAFALPVLERLIYKPRQAAVTRVLVLVPTRELGIQVHSVTKQLAQFCSITTCLAVGGLDVKSQEAALRAAPDILIATPGRLIDHLHNCPSFHLSSIEVLILDEADRMLDEYFEEQMKEIIRMCSHHRQTMLFSATMTDEVKDLASVSLKNPVRIFVNSNTDVAPFLRQEFIRIRPNREGDREAIVAALLMRTFTDHVMLFTQTKKQAHRMHILLGLLGLQVGELHGNLSQTQRLEALRRFKDEQIDILVATDVAARGLDIEGVKTVINFTMPNTVKHYVHRVGRTARAGRAGRSVSLVGEEERKMLKEIVKAAKAPVKARILPQDVILKFRDKIEKLEKDVYAVLQLEAEEKEMQQSEAQIDTAQRLLAKGKETADQEPERSWFQTKEERKKEKIAKALQEFDLALRGKKKRKKFMKDAKKKGEMTAEERSQFEILKAQMFAERLAKRNRRTKRARAMPEDEPTGPAKKQKQQQKSVFDEELTNTSKKALKQYRAGPSFEERKQSGLPRQRRGNFKSKSRYKRKK
B5: RRP9 (protein, UniProt Q91WM3 1-475)
chain: MSTAVATRKRAKPAPGPGAAPVAGKRRRKVDSAADRGKSKGGGKMNEEISSDSESESLAPRKTEEEEEEELEETAQEKKLRLAKLYLEQLRQQEEEKAEARAFEEDQVAGRLKEDVLEQRGRLQKSVAKEIQAPAPTDIRVLRGHQLSITCLVITPDDLAIFSAAKDCTIIKWSVETGRKLHVIPRAKKGAQGQPAGHSSHVLCMAISSDGKYLASGDRSKLILIWEAQSCQHLYTFTGHRDAVSGLAFRKGTHQLYSTSHDRSVKVWNAAENSYVETLFGHQDAVAALDALSRECCVTAGGRDGTVRVWKIPEESQLVFYGHQGSIDCIHLINEEHMVSGADDGSVALWGLSKKRPLALQREAHGLHGEPGLEQPFWVSSVAALLNTDLVATGSHNARVRLWQCGEGFRQLDPLCDIPLVGFINSLKFSSAGDFLVAGVGQEHRLGRWWRIKEARNSVCIIPLRRLPVSPVAGS
B6: RRP1 (protein, UniProt P56183 1-494)
chain: MVPGVPLPPEIQLAQRLAGNEQVTRDRALRKLRKYIEARSQRATGGFTPDELLKVWKGLFYCMWMQDKPLQQEELGRTIAQLVHAFHTTEAQHQFLKAFWQTMIREWVGIDRLRLDKFYMLMRMVLSESLKAVKARGWDERQIEQLLELLTTEILNPDSQAPSGVKSHFLEIFLEELAKVGAAELTADQNLQFIDPFCQIAARTKDSQVLHKIIQSIFQTIVEQAPLAIEDIMNELDTQSGEGEASDGDDGEASDGDDGEASDDDDGEASDGGDGDVADSDDSDGADDDDGDVSDGDGGDNDEGDSNKSSEGEQDLQDTPPKKLPAGTAHRAGPEADKEQAWDDEENAGPVLQFDYEALANRLFKLASRQSTPSQNRKRLYKVIQKLRELAGGTFPEDDVPEKAYKKMLEGRRERKKKKKRLPKPQPQNKEAGSEAESSSADPGPGRKRKRNRKTDEKAGQGGPPGKRRKPGARAKGAGAQQPKKRIQSSQSAE
B7: BST2 (protein, UniProt Q8R2Q8 1-152)
chain: MAPSFYHYLPVPMDEMGGKQGWGSHRQWLGAAILVVLFGVTLVILTIYFAVTANSVACRDGLRAQAECRNTTHLLQRQLTRTQDSLLQAETQANSCNLTVVTLQESLEKKVSQALEQQARIKELENEVTKLNQELENLRIQKETSSTVQVNS
B8: m6-adenosine reader protein YTHDF3 (protein, UniProt Q8BYK6 1-585)
chain: MSATSVDQRPKGQGNKVSVQNGSIHQKDAVNDDDFEPYLSSQTNQNNSYPPMSDPYMPSYYAPSIGFPYSLGEAAWSTAGDQPMPYLTTYGQMSNGEHHYIPDGVFSQPGALGNTPPFLGQHGFNFFPGNADFSTWGTSGSQGQSTQNSAYSSSYGYPPSSLGRAITDGQAGFGNDTLSKVPGISSIEQGMTGLKIGGDLTAAVTKTVGTALSSSGMTSIATNNVPPVSSAAPKPTSWAAIARKPAKPQPKLKPKGNVGIGGSAVPPPPIKHNMNIGTWDEKGSVVKAPPTQPVLPPQTIIQQPQPLIQPPPLVQSQLPQQQPQPPQPQQQQGPQPQAQPHQVQSQQPQLQNRWVAPRNRGTGFNQNNGTGSENFGLGVVPVSASPSSVEVHPVLEKLKAINNYNPKDFDWNLKNGRVFIIKSYSEDDIHRSIKYSIWCSTEHGNKRLDAAYRSLNGKGPLYLLFSVNGSGHFCGVAEMKSVVDYNAYAGVWSQDKWKGKFEVKWIFVKDVPNNQLRHIRLENNDNKPVTNSRDTQEVPLEKAKQVLKIIATFKHTTSIFDDFAHYEKRQEEEEAMRRERNRNKQ
B9: ZC3HAV1 (protein, UniProt Q3UPF5 1-996)
chain: MTDPEVFCFITKILCAHGGRMTLEELLGEISLPEAQLYELLKAAGPDRFVLLETGDQAGITRSVVATTRARVCRRKYCQRPCDSLHLCKLNLLGRCHYAQSQRNLCKYSHDVLSEQNFQVLKNHELSGLNQEELAVLLVQSDPFFMPEICKSYKGEGRKQICGQPQPCERLHICEHFTRGNCSYLNCLRSHNLMDRKVLAIMREHGLSSDVVQNIQDICNNKHTRRNPPSMRAPHPHRRGGAHRDRSKSRDRFHHNSLEVLSTVSPLGSGPPSPDVTGCKDPLEDVSADVTQKFKYLGTQDRAQLSSVSSKAAGVRGPSQMRASQEFLEDGDPDGLFSRNRSDSSTSRTSAAGFPLVAAQRNEAGAMKMGMPSGHHVEVKGKNEDIDRVPFLNSYIDGVTMEEATVSGILGKRATDNGLEEMILSSNHQKSVAKTQDPQTAGRITDSGQDTAFLHSKYEENPAWPGTSTHNGPNGFSQIMDETPNVSKSSPTGFGIKSAVTGGKEAVYSGVQSLRSHVLAMPGETTTPVQGSNRLPPSPLSSSTSHRVAASGSPGKSSTHASVSPASEPSRMMMMMSDPAEYSLCYIVNPVSPRMDDHGLKEICLDHLYRGCQQVNCNKNHFHLPYRWQLFILPTWMDFQDMEYIERAYCDPQIEIIVIEKHRINFKKMTCDSYPIRRLSTPSFVEKTLNSVFTTKWLWYWRNELNEYTQYGHESPSHTSSEINSAYLESFFHSCPRGVLQFHAGSQNYELSFQGMIQTNIASKTQRHVVRRPVFVSSKDVEQKRRGPDHQPVMPQADALTLFSSPQRNASTVSSNEYEFIELNNQDEEYAKISEQFKASMKQFKIVTIKRIWNQKLWDTFERKKQKMKNKTEMFLFHAVGRIHMDYICKNNFEWILHGNREIRYGKGNYFTKEAMYSHKSCSYDSRGTVMFVARVLVGSVIEGNMTLSSPPALYDSCVDTRLNPSVFVIFRKEQIYPEYVIEYMELEKEKGCIIS

No constants are given. Whether binding was seen depends on the method and setting. Binding seen in cells or lysates may run through a third protein. A yes stands for co-enrichment or nearness to the bait. Other partners may have been found.

Nine molecules from article PMC6964919 can be followed below.

This assay deals with GFP-tagged G3BP1 (Ras-GTPase activating SH3 domain binding protein 1). The assay can be described thus: affinity purification with mass spectrometry.
Regarding B1, the binding entry is “binds”. For B2, the binding entry is listed as “binds”. On to B3, for which the binding result is given as “binds”. As to B4, the binding entry is listed as “binds”.

For the molecule B5, the binding result is given as “binds”. With B6, the binding entry was “binds”. For B7, the binding entry was “binds”.

With B8, the binding result was “binds”.

On to B9, for which the binding result was “binds”.
